Measurements: PubChem BioAssay AID588497 (NMMLSC, 2011)
Hit rate of the full screen: of about 360,000 compounds, about 780 (0.22%) were called active. The inconclusive results got no clear call from the source; some entries with a clear call stand among them for comparison. Cut-off read from the data, not from the text of the source: active = inhibition above about 35% (passing the limit was not always enough); inconclusive = no clear call, values can overlap the other calls.

Each molecule was assayed on Botulinum neurotoxin type F light chain protease (Clostridium botulinum) (assay: BoNT/F light chain protease inhibitors, primary screen, biochemical, flow cytometry, MLPCN library (AID 588497; note: plate controls were buffer without enzyme for full effect and enzyme alone for no effect)). Settings: Multiplex microsphere protease cleavage assay, at 10 µM, hits give high values.
`CCn1c(Cc2ccccc2)nnc1SCC(=O)c1c(N)n(C2CC2)c(=O)[nH]c1=O` was tested, and the inhibition was inactive: -3.9%. For `O=C(NCc1ccccc1)N[C@@H](Cc1ccccc1)C(=O)O`, the inhibition was inactive: -5.2%. With `CNC(=O)Cc1csc2ccc(C)cc12` the inhibition was inconclusive: 8.4%. With `CC(=O)NCCCOc1ccc([N+](=O)[O-])cc1Cl` the inhibition was inconclusive: 8.2%. For `Cc1ccnc(N2CCC(C(=O)NNC(=O)c3ccncc3)CC2)n1`, the inhibition was inactive: -4%. `COc1ccc(Cc2nnc(SCC(=O)NCCc3ccccc3)o2)cc1` was tested, and the inhibition was inactive: -7.3%. For `CN1CCN(c2ccc(NC(=O)c3ccc(-c4ccc(Br)cc4)o3)cc2)CC1`, the inhibition was inactive: -32.3%. For `Cc1ccc(-c2nc3c(c(=O)c4ccccc4n3C)c(=O)n2Cc2ccco2)cc1`, the inhibition was inconclusive: 66.7%. In the case of `CO/N=C(\N)c1nonc1N`, the inhibition is reported as inconclusive: -8.5%. `CC1(C)Cc2c(sc3nc(C4CC4)n(N)c(=O)c23)CO1` was tested, and the inhibition was inconclusive: 40.5%. For `CCOc1ccc(C2CC(c3c(O)n(C)c(=O)n(C)c3=O)=NN2)cc1` (stereo unspecified), the inhibition was inconclusive: -27.6%. In the case of `NS(=O)(=O)c1ccc(CCNCC#Cc2ccccc2)cc1`, the inhibition is reported as inconclusive: -56.9%. In the case of `CCC(=O)NC(c1ccc(C)cc1)c1ccc2cccnc2c1O` (stereo unspecified), the inhibition is reported as inconclusive: 10.3%. For `COc1cc(/C=N/n2nnnc2N)cc(OC)c1OC`, the inhibition was inconclusive: -55.8%. In the case of `Cn1nc(C(F)(F)F)cc1-c1ccc(S(N)(=O)=O)s1`, the inhibition is reported as inconclusive: -32.2%. With `CCOC(=O)c1c(C)[nH]c(C(=O)OCC(=O)N(CC(C)C)c2c(N)n(Cc3ccccc3)c(=O)[nH]c2=O)c1C` the inhibition was inactive: 5.2%. For `O=C(CC1CCCCC1)NCc1ccccc1Cl`, the inhibition was inconclusive: 27.8%. For `CN(CC(=O)Nc1ccc(Cl)cc1F)C1CCS(=O)(=O)C1` (stereo unspecified), the inhibition was inactive: -6.8%. In the case of `Cc1c(N=NC2=C(O)CC(C)(C)CC2=O)cc2c(c1[N+](=O)[O-])C(C)(C)CC2(C)C`, the inhibition is reported as inconclusive: 12%. With `Oc1ccc(N=Nc2ccc(Br)cc2)c(O)c1` the inhibition was inactive: -11.1%. In the case of `Clc1cc(Cl)c(OCCCCn2cncn2)c(Cl)c1`, the inhibition is reported as inconclusive: -1.3%. In the case of `CS(=O)(=O)Nc1ccccc1C(=O)NCCSc1ccc(Cl)cc1`, the inhibition is reported as inconclusive: -30%. For `Cc1ccc(NC2=NC(c3ccc(F)cc3)n3c(nc(C)cc3=O)N2)c(C)c1` (stereo unspecified), the inhibition was inconclusive: -31.5%. In the case of `Cc1cc(C)n(C(=O)c2cccc([N+](=O)[O-])c2C)n1`, the inhibition is reported as inconclusive: 5%. For `C/C(=N/N1CCN(Cc2cccc3ccccc23)CC1)c1ccco1`, the inhibition was inconclusive: -36.2%. For `O=C(N/N=C/c1ccncc1)NC12CC3CC(CC(C3)C1)C2`, the inhibition was inconclusive: 55.3%. `COc1ccc(Nc2nc(-c3sc(C)nc3C)cs2)cc1` was tested, and the inhibition was inconclusive: -24.6%. For `CCCCCn1c(=O)c(C(=O)Nc2nc3ccccc3[nH]2)c(O)c2ccccc21`, the inhibition was inconclusive: 4.8%. For `CCOc1ccc(CC2NCCc3cc(OCC)c(OCC)cc32)cc1OCC` (stereo unspecified), the inhibition was inactive: -0.3%. `CC(C)NC(=S)N/N=C/c1cccs1` was tested, and the inhibition was inconclusive: 6.7%. For `CCc1ccc(OCC(=O)Oc2ccc([N+](=O)[O-])cc2)cc1`, the inhibition was inconclusive: -14.5%. With `CCC[N+](CC#CCO)(CC#Cc1ccccc1)CCC` the inhibition was inconclusive: 53.5%. In the case of `CCc1ccc(NC(=S)NCc2cccnc2)cc1`, the inhibition is reported as inconclusive: -65.2%. In the case of `Cc1nnc(SCC(=O)Nc2cccc(S(=O)(=O)N3CCCC3)c2)n1C1CC1`, the inhibition is reported as inactive: -2.1%. In the case of `COc1ccc(CN2CCN(c3ccccc3OC)CC2)cc1OC`, the inhibition is reported as inconclusive: -18.1%. With `C/C=C/C(=O)OCC(=O)NC(=O)NC(C)C` the inhibition was inconclusive: 48.5%. `O=C(NCCNc1ccccc1[N+](=O)[O-])c1cc(F)c(F)cc1Cl` was tested, and the inhibition was inconclusive: -26.2%. For `COc1ccc(C(=O)Nc2ccc(S(=O)(=O)N3CCOCC3)cc2)cc1[N+](=O)[O-]`, the inhibition was inconclusive: -7.1%. In the case of `CCOC(=O)c1cnc(-n2nc(C)cc2C)nc1NNc1nc(C)cc(C)n1`, the inhibition is reported as inconclusive: 2.9%. With `COCC1CCN(C(=O)c2cc(COc3ccc(-n4cncn4)cc3)on2)CC1` the inhibition was inactive: 1.9%. For `O=C(c1cc2ccccc2oc1=O)N(Cc1ccc(F)cc1)C1CCS(=O)(=O)C1` (stereo unspecified), the inhibition was inconclusive: 0.1%. With `Cc1nc(N/N=C\c2ccc3c(c2)OCO3)sc1C` the inhibition was inconclusive: -9.1%. `CCN(C(=O)Cn1c(=O)oc2ccccc21)c1cccc(C(F)(F)F)c1` was tested, and the inhibition was inactive: -5.6%. In the case of `CC(/C=N/n1c(COc2ccccc2)n[nH]c1=S)=C\c1ccco1`, the inhibition is reported as inconclusive: 84.5%. With `C[N+]1(CC(=O)OCCCc2ccccc2)CCCCC1` the inhibition was inactive: -13.8%. `O=C(Nc1scc(-c2ccccc2)c1C(=O)O)c1ccccc1F` was tested, and the inhibition was inconclusive: 36.4%.
